These are yes or no findings as the source states them, for the method shown. Binding calls can cover weak binding; strength is not graded here.
Target: σ^SsdA (AMIS_54240) (Actinoplanes missouriensis) (UniProt I0HCA7)
Assay: two-hybrid; bacterial adenylate cyclase-based two-hybrid (BACTH, Euromedex) in E. coli BTH101; T25 fusions in pKT25 and T18 fusions in pUT18C; cultures with IPTG at 30 °C for 48 h; β-galactosidase activity (Miller units) against empty vectors

Substance: SipA (SsdA inhibitor protein, AMIS_54230) (from UniProt I0HCA6)
- binding: binds

Source: publication PMC10733313
